Library screen at single concentrations

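Phenotypic screen: M. tuberculosis growth, cholesterol and DPPC medium, 4 days; the read-out is not stated. Compounds at 50 µM. Direction is inferred from retests: higher values go with more growth inhibition. About 69,000 compounds were tested under these conditions; 0.54% (about 370) showed 50% or more at least once.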

The filed quantity is “Percent Effect” (%).
How 0% and 100% were set is not recorded. Most values in the screen are low, and negative values occur.
The compounds are a random part of those screened.
Two or more numbers in one place are separate tests of the same structure; such repeats can differ widely.

| SMILES | Percent Effect |
|---|---|
| `CN(C)c1ccc(CNCc2cnc(N3CCOCC3)nc2)cn1.Cl` | 17.47% |
| `Cc1nnc(CN2CCCC2c2ccc(C(C)(C)C)cc2)o1` (centres unmarked) | 7.379% |
| `Cc1ccc(C(=O)N2CC(Oc3ccccc3C)C2)s1` | 61.21% |
| `COc1cc(NCCNC(=O)c2cc[nH]c2C)cc(OC)c1` | 0.8529% |
| `CCCc1nc(C)cc(N2CCC3(CCC(=O)N(CC4CC4)C3)CC2)n1` | -7.712% |
| `COCCN1CCc2nc(SCc3ccc(F)cc3)[nH]c(=O)c2C1` | -44.87% |
| `COc1ccccc1CC(=O)N1CCCC1Cn1nc(C)cc1C` (centres unmarked) | -10.29% |
| `Cc1cccc(C)c1C(=O)N1C[C@@H](CN2CCOCC2)[C@@H](CO)C1` | -6.89% & -1.894% |
| `Cc1ccc(CN(Cc2ccccn2)C2CC(C)(C)NC(C)(C)C2)s1.O=C(O)CC(O)(CC(=O)O)C(=O)O` | -7.121% |
| `COc1ccc(CNCCc2cc(F)cc3c2OCOC3)cc1O` | 6.522% |
| `COCc1ncn2c1CN(S(=O)(=O)Cc1ccc(C)cc1)CC2.O=C(O)C(F)(F)F` | -14.45% |
| `Cc1nc(-c2ccccc2)n(CC(=O)NCC(C)C)n1` | -10.92% |
| `Cc1nc[nH]c1CN(Cc1ccc(F)cc1)C1CC(C)(C)NC(C)(C)C1` | 7.263% & 5.778% |
| `CCCN(C)C(=O)c1cc(S(=O)(=O)NCC)ccc1C` | -19.25% |
| `CN(CCc1ccncc1)C(=O)C1CSCN1C(=O)C1CCCC1` (centres unmarked) | -5.86% |
| `COc1cccc2ccc(CN3CCN(c4ncccc4C)CC3)nc12` | -42.35% |
| `[H][C@]12CC[C@]([H])(C1)[C@H](NC(=O)C1(Oc3ccc(Cl)cc3)CCNCC1)C2` | 12.52% |
| `O=C(O)C(F)(F)F.[H][C@]12C[C@@H](C(=O)Nc3cnccn3)CO[C@@]1([H])CCN(c1ncc(F)cn1)C2` | -21.88% |
| `Cc1nc(C2(NCc3ccc(C#N)cc3F)CCCC2)no1` | 10.99% |
| `CS(=O)(=O)N1CCOCC12CCN(Cc1ccc(F)cc1)CC2.O=C(O)C(F)(F)F` | 0.4891% |
| `COc1cc(N2CCCn3cnc(COCCO)c3C2)ncn1` | -0.4616% |
| `CCc1nccn1CC(=O)N1CCN(C2CCc3ccccc3C2)CC1` (centres unmarked) | 7.642% & -4.045% |
| `CCN(CCNCc1ccc(C#N)cc1)C1CC1` | -2.672% |
| `CN(CC(=O)N(C)C(c1ccc(Cl)cc1)c1cccnc1)C1CC1` (centres unmarked) | -10.45% |
| `C[C@]1(O)CN(Cc2cscn2)CC[C@@H]1Oc1cccc(F)c1` | -4.019% |
| `O=C(NC(c1ccccc1)c1cccnc1)C1CC1` (centres unmarked) | -11.82% |
| `COc1ccccc1C(NC(=O)C1CCCC1)c1noc(C)n1` (centres unmarked) | -9.295% |
| `Cn1nc2c(cc1=O)CN(Cc1nc(C(C)(C)C)no1)CC2` | -6.78% |
| `CCn1cncc1Cn1cccc(C(F)(F)F)c1=O` | -22.23% |
| `CCC(=O)NS(=O)(=O)c1cccnc1Nc1cccc(Cl)c1Cl` | -16.21% |
| `COCCN(C)C(C(=O)O)c1ccc(C)c(C)c1` (centres unmarked) | 0.7296% |
| `COCCN1CCN(S(=O)(=O)c2ccccc2)Cc2cccnc21.O=C(O)C(F)(F)F` | 12.73% |
| `Cc1n[nH]c(C)c1CC(=O)N1CCN(C)C2(CCNC(=O)CC2)C1` (centres unmarked) | 10.28% |
| `Cc1nc(CN2CCCN(C(=O)c3cccnc3O)CC2)cs1` | -14% |
| `Cc1cc(-c2cnc(N3CCOCC3)nc2-c2ccc(C)s2)on1` | 16.93% |
| `COCCc1noc(CN2CCC(c3ccccc3C(=O)O)C2)n1` (centres unmarked) | 4.454% |
| `CCN1CCCCC1C(=O)N1CCc2onc(-c3ccc(Cl)cc3)c2C1` (centres unmarked) | 16.01% |
| `CC(=O)N1CCC2(CC1)CN(C)CC[C@H]2C(F)(F)F.Cl` | -10.87% |
| `CCCS(=O)(=O)N1CCC(Nc2c(F)cc(C#N)cc2F)CC1` | 6.688% |
| `CN(C)C(=O)C1CCC2(CCN(C(=O)Nc3ccccc3)CC2)O1` (centres unmarked) | -16% |
| `COc1c(NC(=O)C(C)CCOc2ccccc2)c(C)nn1C` (centres unmarked) | 5.303% |
| `Cn1ccnc1CN1CCC2(CC1)CN(c1ccccn1)CCO2.O=C(O)C(F)(F)F.O=C(O)C(F)(F)F` | -9.465% |
| `O=C(O)C(F)(F)F.[H][C@]12CC[C@@]3(N=C(C)N(CC(C)C)C3=O)[C@@]1([H])CN(CC1CC1)C2` | -17.93% |
| `CC1CCCN(C(=O)Cn2cc(I)cn2)C1` (centres unmarked) | -0.7984% |
| `O=C(NCC1CCCO1)c1nc2c(s1)CCCN2Cc1ccccc1` (centres unmarked) | -22.17% |
| `COc1ccccc1S(=O)(=O)N1CC(N(C)C)Cc2ccccc21` (centres unmarked) | 5.131% & 0.8486% |
| `CCNC(=O)c1ccnc(NCC2COc3cc(OC)ccc3C2)c1` (centres unmarked) | 2.794% |
| `c1cnn(CC2CCCN2c2ncnc3ccsc23)c1` (centres unmarked) | -7.167% |
| `Cc1cc(CN(C2CC2)C(C)C(C)C)on1` (centres unmarked) | 15.75% |
| `Cn1ncc2c(N3CCN(C(N)=O)CC3)nc(C3CCCC3)nc21` | -22.17% |
| `CC(C)(C)C(=O)N1CCCC1c1nc(O)cc(-c2ccccn2)n1` (centres unmarked) | -6.733% |
| `Cc1cc(N2CCN(C(=O)C(C)n3ccnc3C(C)C)CC2)cc(C)n1` (centres unmarked) | -3.112% |
| `N#Cc1ccc(SCCOCCO)c(F)c1` | 7.624% |
| `COc1cccc(S(=O)(=O)N2C[C@@H](O)[C@H](N(C)C)C2)c1` | -4.768% |
| `O=C1CCC(C(=O)Nc2ccc(=O)n(Cc3ccccc3Cl)c2)N1` (centres unmarked) | -12.25% |
| `O=C(O)C(F)(F)F.O=C(O)C(F)(F)F.[H][C@@]12CCCO[C@]1([H])[C@H](OCc1ccncc1)CN2Cc1ccccc1F` | -20.45% |
| `O=C(O)C(F)(F)F.O=C(O)C(F)(F)F.[H][C@@]12COC[C@@H](CC(=O)NCc3cccnc3)[C@]1([H])CN(CC1CC1)C2` | 8.592% |
| `COc1ccc(CNC[C@H]2COCc3nc4cc(F)ccc4n32)cn1` | 18.62% |
| `Cc1cccc(NC(=O)N2CC(C(=O)NC(C)C)C3(CCOCC3)C2)c1` (centres unmarked) | -3.601% |
| `Cc1nnc(C2CCN(C(=O)c3ccc(-n4cccc4)cc3)CC2)s1` | -10.64% |
| `COCC(NC1CSCCSC1)c1ccnn1C` (centres unmarked) | 3.967% |
| `O=C(c1ccccc1N1CCOCC1)N1CCCC(n2ccnc2)C1` (centres unmarked) | 13.33% |
| `Cc1ncoc1C(=O)N1CC[C@@H](O)[C@@H](O)[C@H](N2CCC(F)(F)CC2)C1` | 2.515% |

For reference, 4 entries once more:

- O=C(O)C(F)(F)F.O=C(O)C(F)(F)F.[H][C@@]12CCCO[C@]1([H])[C@H](OCc1ccncc1)CN2Cc1ccccc1F : -20.45%
- COCCN(C)C(C(=O)O)c1ccc(C)c(C)c1 (centres unmarked) : 0.7296%
- Cc1nnc(CN2CCCC2c2ccc(C(C)(C)C)cc2)o1 (centres unmarked) : 7.379%
- COc1cc(NCCNC(=O)c2cc[nH]c2C)cc(OC)c1 : 0.8529%

Source: ChEMBL document CHEMBL3988442, “University of Dundee, Small-Polar-MMV Screening Library” (2021).